The values that follow come from PMC6956814, “Deubiquitinase USP28 inhibits ubiquitin ligase KLHL2-mediated uridine-cytidine kinase 1 degradation and confers sensitivity to 5'-azacytidine-resistant human leukemia cells” (Theranostics, 2020).

No constants are given. Whether binding was seen depends on the method and setting. In cells and extracts the contact can be indirect. Some entries that bind do so weakly or less than the wild type. For some of these results: Where a sequence is shown, tags or fusion partners need not be part of it.

Assay [1] deals with T1, KLHL2, expressed from a plasmid in HEK293T cells (human) (UniProt O95198).
T1 sequence: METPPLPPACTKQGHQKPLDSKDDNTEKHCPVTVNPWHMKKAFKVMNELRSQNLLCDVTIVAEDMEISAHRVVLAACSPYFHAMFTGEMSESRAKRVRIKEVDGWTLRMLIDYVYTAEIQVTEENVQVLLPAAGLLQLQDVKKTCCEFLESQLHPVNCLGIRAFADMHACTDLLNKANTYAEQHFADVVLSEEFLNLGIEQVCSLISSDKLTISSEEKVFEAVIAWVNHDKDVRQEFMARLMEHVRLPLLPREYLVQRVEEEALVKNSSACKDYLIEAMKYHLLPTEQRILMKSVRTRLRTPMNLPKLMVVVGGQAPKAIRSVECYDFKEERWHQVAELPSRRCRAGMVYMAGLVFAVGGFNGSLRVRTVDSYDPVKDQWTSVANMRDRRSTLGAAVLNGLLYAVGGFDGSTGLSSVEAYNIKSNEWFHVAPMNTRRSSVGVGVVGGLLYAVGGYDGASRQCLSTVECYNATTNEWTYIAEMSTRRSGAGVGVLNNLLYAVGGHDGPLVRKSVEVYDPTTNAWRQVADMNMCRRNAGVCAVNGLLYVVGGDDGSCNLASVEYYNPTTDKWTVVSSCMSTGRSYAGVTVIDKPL
The assay is described as follows: co-IP; HEK293T cells expressing KLHL2, HA-UCK1 and Flag-USP28; immunoprecipitation with anti-KLHL2 antibody.

The target of assay [2] is T2, UCK1 (uridine-cytidine kinase 1), endogenous (human (endogenous in HEK293T, MV4-11, HL-60)) (UniProt Q9HA47).
T2 sequence: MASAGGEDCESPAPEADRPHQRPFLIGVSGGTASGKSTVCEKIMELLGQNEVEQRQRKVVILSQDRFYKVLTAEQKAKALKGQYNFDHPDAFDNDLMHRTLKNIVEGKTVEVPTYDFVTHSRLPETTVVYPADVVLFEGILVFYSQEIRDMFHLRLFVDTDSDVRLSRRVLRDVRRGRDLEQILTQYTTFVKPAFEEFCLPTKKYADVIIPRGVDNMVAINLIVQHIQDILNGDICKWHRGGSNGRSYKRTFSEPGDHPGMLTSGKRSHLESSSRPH
The experiment in a line: co-IP; endogenous proteins, MV4-11 extracts, immunoprecipitated with anti-UCK1 or anti-KLHL2 antibody.

For assay [3], the target named is T2, UCK1 (uridine-cytidine kinase 1), endogenous (human (endogenous in HEK293T, MV4-11, HL-60)). The experiment in a line: co-IP; endogenous proteins, HEK293T extracts, immunoprecipitated with anti-UCK1 or anti-KLHL2 antibody.
Assay [4] shares this target. The assay is described as follows: proximity ligation; Duolink In Situ Red Starter Kit Mouse/Rabbit; HL-60 cells with indicated treatment.
The target of a further assay is T3, Flag-UCK1-WT (human) (UniProt Q9HA47).
T3 sequence: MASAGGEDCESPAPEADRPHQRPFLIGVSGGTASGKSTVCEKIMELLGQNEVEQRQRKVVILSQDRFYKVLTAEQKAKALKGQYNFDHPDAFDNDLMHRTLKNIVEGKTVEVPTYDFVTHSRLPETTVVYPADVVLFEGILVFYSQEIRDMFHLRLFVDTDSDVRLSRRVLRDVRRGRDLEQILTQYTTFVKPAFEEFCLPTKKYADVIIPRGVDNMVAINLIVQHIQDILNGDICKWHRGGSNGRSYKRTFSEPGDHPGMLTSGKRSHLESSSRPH
The experiment in a line: co-IP; HL-60 cells transfected with vector, Flag-UCK1-WT or Flag-UCK1-S145A, 2 days later treated with or without 5'-AZA for 6 h; immunoprecipitation and immunoblotting. (Immunoblotting shows a protein as a band on a membrane.)

Assay [5] deals with T4, 23-220 amino acid (aa) fragment of GST-UCK1 (human) (UniProt Q9HA47).
T4 sequence: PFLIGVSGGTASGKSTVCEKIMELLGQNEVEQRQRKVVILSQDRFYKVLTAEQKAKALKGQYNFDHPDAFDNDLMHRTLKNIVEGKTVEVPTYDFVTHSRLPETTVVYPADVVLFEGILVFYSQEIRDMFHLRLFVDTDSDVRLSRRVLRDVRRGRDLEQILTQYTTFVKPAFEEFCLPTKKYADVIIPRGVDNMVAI
The experiment in a line: pull-down; GST-tagged fragments of UCK1 (and truncated KLHL2 fragments) tested against the other protein, immunoblot; Figure 1F.

Another assay deals with T5, His-UCK1 (human) (UniProt Q9HA47).
T5 sequence: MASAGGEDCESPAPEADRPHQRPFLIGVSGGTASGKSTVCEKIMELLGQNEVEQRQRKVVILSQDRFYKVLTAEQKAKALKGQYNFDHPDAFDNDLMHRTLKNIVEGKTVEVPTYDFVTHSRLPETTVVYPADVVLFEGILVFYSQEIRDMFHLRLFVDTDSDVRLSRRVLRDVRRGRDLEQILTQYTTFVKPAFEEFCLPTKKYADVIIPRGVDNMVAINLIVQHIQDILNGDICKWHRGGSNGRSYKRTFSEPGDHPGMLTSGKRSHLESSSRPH
The experiment in a line: co-IP; HEK293T cells transiently transfected with His-UCK1 and GFP-KLHL2 for 48 hours; reciprocal immunoprecipitation, blots with His or GFP antibodies.

B1: Recombinant GST-UCK1 protein (enzyme, human, UniProt Q9HA47 1-277, looked up)
chain: MASAGGEDCESPAPEADRPHQRPFLIGVSGGTASGKSTVCEKIMELLGQNEVEQRQRKVVILSQDRFYKVLTAEQKAKALKGQYNFDHPDAFDNDLMHRTLKNIVEGKTVEVPTYDFVTHSRLPETTVVYPADVVLFEGILVFYSQEIRDMFHLRLFVDTDSDVRLSRRVLRDVRRGRDLEQILTQYTTFVKPAFEEFCLPTKKYADVIIPRGVDNMVAINLIVQHIQDILNGDICKWHRGGSNGRSYKRTFSEPGDHPGMLTSGKRSHLESSSRPH
notes: uridine-cytidine kinase 1 (UCK1), human; source: recombinant
For B1, the binding entry in assay [1] was “binds”.

B2: KLHL2 (Kelch Like Family Member 2), endogenous (protein, UniProt O95198 1-593)
chain: METPPLPPACTKQGHQKPLDSKDDNTEKHCPVTVNPWHMKKAFKVMNELRSQNLLCDVTIVAEDMEISAHRVVLAACSPYFHAMFTGEMSESRAKRVRIKEVDGWTLRMLIDYVYTAEIQVTEENVQVLLPAAGLLQLQDVKKTCCEFLESQLHPVNCLGIRAFADMHACTDLLNKANTYAEQHFADVVLSEEFLNLGIEQVCSLISSDKLTISSEEKVFEAVIAWVNHDKDVRQEFMARLMEHVRLPLLPREYLVQRVEEEALVKNSSACKDYLIEAMKYHLLPTEQRILMKSVRTRLRTPMNLPKLMVVVGGQAPKAIRSVECYDFKEERWHQVAELPSRRCRAGMVYMAGLVFAVGGFNGSLRVRTVDSYDPVKDQWTSVANMRDRRSTLGAAVLNGLLYAVGGFDGSTGLSSVEAYNIKSNEWFHVAPMNTRRSSVGVGVVGGLLYAVGGYDGASRQCLSTVECYNATTNEWTYIAEMSTRRSGAGVGVLNNLLYAVGGHDGPLVRKSVEVYDPTTNAWRQVADMNMCRRNAGVCAVNGLLYVVGGDDGSCNLASVEYYNPTTDKWTVVSSCMSTGRSYAGVTVIDKPL
B2: the binding result (in assay [2]; in assay [3]; in assay [4]; with Flag-UCK1-WT (human)) was “binds” throughout.

B3: His-tagged KLHL2 protein (protein, UniProt O95198 1-593)
chain: METPPLPPACTKQGHQKPLDSKDDNTEKHCPVTVNPWHMKKAFKVMNELRSQNLLCDVTIVAEDMEISAHRVVLAACSPYFHAMFTGEMSESRAKRVRIKEVDGWTLRMLIDYVYTAEIQVTEENVQVLLPAAGLLQLQDVKKTCCEFLESQLHPVNCLGIRAFADMHACTDLLNKANTYAEQHFADVVLSEEFLNLGIEQVCSLISSDKLTISSEEKVFEAVIAWVNHDKDVRQEFMARLMEHVRLPLLPREYLVQRVEEEALVKNSSACKDYLIEAMKYHLLPTEQRILMKSVRTRLRTPMNLPKLMVVVGGQAPKAIRSVECYDFKEERWHQVAELPSRRCRAGMVYMAGLVFAVGGFNGSLRVRTVDSYDPVKDQWTSVANMRDRRSTLGAAVLNGLLYAVGGFDGSTGLSSVEAYNIKSNEWFHVAPMNTRRSSVGVGVVGGLLYAVGGYDGASRQCLSTVECYNATTNEWTYIAEMSTRRSGAGVGVLNNLLYAVGGHDGPLVRKSVEVYDPTTNAWRQVADMNMCRRNAGVCAVNGLLYVVGGDDGSCNLASVEYYNPTTDKWTVVSSCMSTGRSYAGVTVIDKPL
As to B3, the binding entry in assay [5] is recorded as “binds”.

B4: GFP-KLHL2 (protein, UniProt O95198 1-593)
chain: METPPLPPACTKQGHQKPLDSKDDNTEKHCPVTVNPWHMKKAFKVMNELRSQNLLCDVTIVAEDMEISAHRVVLAACSPYFHAMFTGEMSESRAKRVRIKEVDGWTLRMLIDYVYTAEIQVTEENVQVLLPAAGLLQLQDVKKTCCEFLESQLHPVNCLGIRAFADMHACTDLLNKANTYAEQHFADVVLSEEFLNLGIEQVCSLISSDKLTISSEEKVFEAVIAWVNHDKDVRQEFMARLMEHVRLPLLPREYLVQRVEEEALVKNSSACKDYLIEAMKYHLLPTEQRILMKSVRTRLRTPMNLPKLMVVVGGQAPKAIRSVECYDFKEERWHQVAELPSRRCRAGMVYMAGLVFAVGGFNGSLRVRTVDSYDPVKDQWTSVANMRDRRSTLGAAVLNGLLYAVGGFDGSTGLSSVEAYNIKSNEWFHVAPMNTRRSSVGVGVVGGLLYAVGGYDGASRQCLSTVECYNATTNEWTYIAEMSTRRSGAGVGVLNNLLYAVGGHDGPLVRKSVEVYDPTTNAWRQVADMNMCRRNAGVCAVNGLLYVVGGDDGSCNLASVEYYNPTTDKWTVVSSCMSTGRSYAGVTVIDKPL
On to B4, for which, in the assay with His-UCK1 (human), the binding result is “binds”.
